Source: patent publication US6989435B2, “Compounds and methods to inhibit or augment an inflammatory response” (Cambridge University Technical Services Ltd., priority 1997, dated 2006)
At least one peptide structure holds a part that was inferred or is arguable (an end, a ring closure or a residue). No end group written: not given here.

Test system: chemokine-induced THP-1 migration (MCP-1, MIP1α, IL8, SDF1α)
Experiment: Trans-well THP-1 migration assay, across the chemokines tested
Type: cell-based, human
Protocol: To determine whether an agent inhibits a chemokine-induced activity, such as macrophage recruitment, varying amounts of the agent are mixed with cells in the presence of a known chemoattractant. […] Chemokine (such as MCP-1, MIP1α, IL8 or SDF-1α), at a concentration known to cause significant migration of THP-1 cells in the trans-well migration assay, is placed in the lower compartment (FIG. 1). […] After incubation, the cells are gently removed from the top of the filter with a pipette, 20 μl of 20 mM EDTA in simple PBS is added into each top well, and incubated for 20 minutes at 4° C. The filter is carefully flushed with media using a gentle flow, and removed. […] The media is carefully aspirated from each well, and the converted dye is solubilized by 20 μl of DMSO. Absorbance of converted dye is measured at a wavelength of 595 nm using an ELISA plate reader. The number of migrated cells in each well is then determined by interpolation of the standard curve (see also Imai et al., J. Biol. Chem., 272, 15036 (1997)). […] The framed filter was aligned with the holes in the corner of the filter frame and placed over the wells. Five×10^4 THP-1 cells in 25 μl of RPMI-1640 culture media were added to the upper compartment. Peptides were dissolved in Milli Q water and then serially diluted in culture medium. In most cases, the serially diluted peptides were added to the upper compartment of the chemotaxis chamber. […] After incubation, the cells were gently removed from the top of the filter with a pipette, 20 μl of 20 mM EDTA in PBS was added into each top well, and the mixture was incubated for 20 minutes at 4° C. The filter was then carefully flushed with media using a gentle flow, and removed. […] The media was carefully aspirated from each well, and the converted dye was solubilized by 20 μl of DMSO. Absorbance of converted dye was measured at a wavelength of 595 nm using an ELISA plate reader. […] Representative chemokines included a beta-chemokine (“CC”), MIP-1α, and two alpha-chemokines (“CXC”), IL-8 and SDF-1α. […]

Row | Compound | specificity for the cognate chemokine over the other chemokines tested | CC SPECIFICITY (Table 7, average inhibitory ED50 versus SDF1 and IL8 divided by average inhibitory ED50 versus MCP-1 and MIP1α) | effect on migration induced by non-cognate chemokines (even at 100 μM) | inhibition of THP-1 cell migration induced by MCP-1, MIP1α, IL-8 and SDF1α, in words
1 | NCCCC[C@H](NC(=O)[C@H](CCC(N)=O)NC(=O)[C@@H](N)CCCCN)C(=O)O [KQK] | more than 100 fold | >100 | no effect | 
2 | DYFETSSQCSKPGV [Pep2[MIP1α]] |  |  |  | did not inhibit
